PubChem BioAssay AID2685 (National Center for Advancing Translational Sciences (NCATS), 2010)
The other results are listed elsewhere or left out. The main result of the screen is listed elsewhere. These columns were measured beside it and carry no call. Most of these compounds were active or inconclusive in the main read-out, so they are no random draw. Potencies come from curve fits of mixed quality, noted in brackets.

Assay: qHTS Assay for Lipid Storage Modulators in Drosophila S3 Cells;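 on cell number change: cells counted by Cell Tracker Red CMTPX staining in the red channel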
Details: BODIPY lipid droplet fluorescence, 18-24 h; for cell number change: measured here: cell count max response, cells fed with added oleic acid
In short: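 Drosophila S3 cells got compounds at several concentrations plus oleic acid (400 uM solution). Laser-scanning cytometry with 488 nm excitation read lipid droplets at 500-530 nm and cells at 575-640 nm. Percent activity was relative to 20 uM Triacsin C.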

[1] = measured here: lipid fluorescence (Fed channel) AC50, cells fed with added oleic acid
[2] = measured here: cell number channel AC50, cells fed with added oleic acid

Row | SMILES | AC50 [1] | cell number change [%] | AC50 [2]
1 | CSc1ncccc1C(=O)NCC1CCCCC1 | 20.6 µM [rising, single point] | – | –
2 | O=C(/C=C/c1ccc2c(c1)OCO2)N1CCCCC1 | 4.61 µM [rising, full curve] | 6.67 | –
3 | Cn1c(-c2ccc3c(c2)OCO3)cnc1NCc1cccc(O)c1 | 0.092 µM [falling, full curve, poor fit] | 0.602 | –
4 | COc1ccc(CNC(=O)CN(Cc2ccc(Cl)cc2)C(=O)c2csnn2)cc1 | 3.26 µM [rising, single point] | 6.84 | –
5 | c1cncc(-c2nc(-c3ccc4c(c3)OCO4)cs2)c1 | 29.1 µM [rising, partial curve] | – | 0.0146 µM [rising, full curve, poor fit]
6 | O=C(CN1C(=O)c2ccccc2S1(=O)=O)NCc1cccnc1 | 2.06 µM [falling, full curve] | -26.9 | 0.184 µM [falling, full curve, poor fit]
7 | Cc1ccc(-n2nnnc2CS(=O)(=O)c2ccccc2)c(C)c1 | 2.59 µM [rising, single point] | 16.8 | –
8 | CC(=O)N(C(C)=O)N1C(=O)c2cccc3c(N4CCOCC4)ccc(c23)C1=O | 29.1 µM [falling, partial curve, poor fit] | -26.3 | –
9 | Cc1c(O)ccc(NC(=O)/C=C/c2ccccc2)c1C | 2.24 µM [falling, single point] | 9.81 | –
10 | Cc1nn(-c2ccc(F)cc2)c(Cl)c1/C=N/NC(=O)c1cccs1 | 13 µM [falling, partial curve] | -45.1 | 14.6 µM [falling, partial curve]
11 | Cn1c(SCc2cccc(Br)c2)nnc1-c1ccccn1 | 3.66 µM [rising, single point] | 23.4 | 6.51 µM [rising, single point]
12 | COc1ccc(-c2cc(C)no2)cc1S(=O)(=O)N1CCOc2ccc(C)cc21 | 3.26 µM [falling, single point] | 61.1 | 20.6 µM [rising, single point]
13 | COc1ccc(OCc2cccc(C(=O)Nc3cc(C)on3)c2)cc1 | 0.00517 µM [rising, full curve, poor fit] | 5.87 | –
14 | CCc1cccc(NC(=O)CSCc2nc3sc(C)c(C)c3c(=O)[nH]2)c1 | 16.4 µM [rising, single point] | 2.51 | –
15 | COc1cc(CC(=O)Nc2sc3c(c2C(N)=O)CCCC3)cc(OC)c1OC | 16.4 µM [rising, partial curve] | 14.1 | –
16 | COc1ccc(NC(=O)CN(C)C(=O)CCCc2c[nH]c3ccccc23)cc1 | 18.4 µM [falling, single point] | -3.98 | –
17 | CCCC(=O)n1nc(-c2cccnc2)nc1N | 4.61 µM [falling, full curve, poor fit] | -19.4 | –
18 | COc1cccc(-n2c(C)nnc2SCC(=O)Nc2ccccc2N2CCOCC2)c1 | 0.0651 µM [rising, single point] | 21.3 | 0.731 µM [rising, full curve, poor fit]
19 | O=C(O)CCn1cc(-c2ccc(Cl)cc2)nc1-c1ccncc1 | 0.731 µM [falling, single point] | 28.3 | –
20 | CCn1c(O)c(N=NC(=O)CNc2ccc(C)cc2)c2ccccc21 | 4.61 µM [rising, partial curve] | 14.9 | 1.64 µM [rising, partial curve, poor fit]

Retrieved by structure from above (5):
Row | SMILES | AC50 [1] | cell number change [%] | AC50 [2]
20 | CCn1c(O)c(N=NC(=O)CNc2ccc(C)cc2)c2ccccc21 | 4.61 µM [rising, partial curve] | 14.9 | 1.64 µM [rising, partial curve, poor fit]
12 | COc1ccc(-c2cc(C)no2)cc1S(=O)(=O)N1CCOc2ccc(C)cc21 | 3.26 µM [falling, single point] | 61.1 | 20.6 µM [rising, single point]
2 | O=C(/C=C/c1ccc2c(c1)OCO2)N1CCCCC1 | 4.61 µM [rising, full curve] | 6.67 | –
3 | Cn1c(-c2ccc3c(c2)OCO3)cnc1NCc1cccc(O)c1 | 0.092 µM [falling, full curve, poor fit] | 0.602 | –
4 | COc1ccc(CNC(=O)CN(Cc2ccc(Cl)cc2)C(=O)c2csnn2)cc1 | 3.26 µM [rising, single point] | 6.84 | –

Additional entries follow:

Row | SMILES | AC50 [1] | cell number change [%] | AC50 [2]
21 | CCOC(=O)Cc1csc(NC(=O)c2ccc(C)c(S(=O)(=O)N3CCOCC3)c2)n1 | 8.2 µM [rising, partial curve] | 39.7 | 32.6 µM [rising, single point]
22 | S=c1nc(-c2ccccc2)[nH]c2ccccc12 | 3.66 µM [falling, single point] | – | –
23 | COc1ccc(OC)c(-c2csc(N(Cc3ccco3)C(=O)c3cccs3)n2)c1 | 6.51 µM [falling, partial curve, poor fit] | -20.4 | –
24 | Cc1cc(Cl)c2oc(C(=O)N3CCCCC3CCN3CCCC3=O)c(C)c2c1 (stereo unspecified) | 29.1 µM [rising, single point] | 3.24 | –
25 | O=C(c1ccc(CS(=O)(=O)Cc2ccc(Cl)cc2)o1)N1CCCC1 | 13 µM [rising, single point] | 18.6 | –
26 | COc1cc2oc3ccccc3c2cc1N(CC(=O)N(C)C)S(=O)(=O)c1ccccc1 | 0.82 µM [rising, full curve] | -13.3 | –
27 | Cc1cc(NC(=O)c2cccs2)ccc1NC(=O)Cc1ccccc1 | 1.3 µM [rising, full curve, poor fit] | 31.4 | 1.16 µM [rising, full curve, poor fit]
28 | CCc1ccc(OCc2ccc(C(=O)O)o2)cc1 | 0.13 µM [rising, full curve, poor fit] | 42.3 | 0.092 µM [rising, full curve, poor fit]
29 | CCC(=O)Nc1ccc(C(=O)CSc2nnc(-c3ccc(NS(=O)(=O)CC)cc3)o2)cc1OC | 1.84 µM [falling, full curve, poor fit] | -23.6 | –
30 | Cc1ccnc(SCC(=O)NC2CCCCCC2)n1 | 0.58 µM [falling, single point] | 0.276 | –
31 | O=C(NCCc1ccc(OC(F)F)cc1)C1CC(=O)N(c2ccc3c(c2)OCCO3)C1 (stereo unspecified) | – | -7.06 | –
32 | CCOCCC(=O)Nc1cc(Cl)ccc1OC | – | 74.9 | 14.6 µM [rising, partial curve]
33 | O=C1NC(c2ccncc2)Nc2ccccc21 (stereo unspecified) | – | 3.26 | –
34 | COc1ccc(C2(C)NC(=O)N(CC(=O)Nc3ccc(Br)cc3F)C2=O)cc1OC (stereo unspecified) | 0.58 µM [rising, single point] | 10.4 | –
35 | Cc1cccc(NS(=O)(=O)c2ccc(C(C)(C)C)cc2)n1 | 0.164 µM [falling, single point] | 10.6 | –
36 | Cc1ccc(NC(=O)COC(=O)Cc2c[nH]c3ccccc23)cc1F | – | -64 | 29.1 µM [falling, single point]
37 | COc1ccc(C2=NO[C@@H]3[C@@H]4C[C@@H]([C@H]5C(=O)N(C)C(=O)[C@@H]45)[C@H]23)cc1 | – | – | 2.91 µM [rising, single point]
38 | COc1ccc(-c2noc(N3CCC(C(=O)Nc4cc(OC)ccc4OC)CC3)n2)cc1 | 4.11 µM [rising, single point] | 9.8 | –
39 | O=S(=O)(Nc1ccccc1)c1ccc(NS(=O)(=O)c2c(F)cccc2F)cc1 | 2.59 µM [falling, partial curve, poor fit] | -9.52 | –
40 | O=C(Cn1cc(S(=O)(=O)Cc2ccccc2)c2ccccc21)Nc1ccccc1 | – | 16.9 | –

Row | SMILES | AC50 [1] | cell number change [%] | AC50 [2]
41 | O=C(NCc1ccccc1)c1ccc(NC(=O)c2ccco2)cc1 | – | 3.78 | –
42 | COCCNc1nnc(SCC(=O)Nc2cc(-c3ccccc3)nn2-c2ccccc2)s1 | 20.6 µM [falling, partial curve] | -28 | –
43 | CC(=O)OCC(=O)[C@@]1(O)CCC2C3CCC4=CC(=O)CCC4(C)C3C(=O)CC21C (stereo partly specified) | 11.6 µM [rising, single point] | -25 | –
44 | Cc1cc(Nc2ccc3c(c2)OCCO3)c2cc(Cl)ccc2n1 | 0.0651 µM [falling, full curve, poor fit] | -8.91 | –
45 | CN(Cc1c(F)cccc1Cl)C(=O)CCc1c[nH]c2ccccc12 | 0.1 µM [falling, full curve, poor fit] | -14.5 | –
46 | S=c1[nH]nc(C2CCCCC2)n1/N=C/c1cccc(Cl)c1Cl | – | -53.2 | 20.6 µM [falling, partial curve]
47 | COCCn1c(SCC(=O)c2ccc3c(c2)OCCO3)nnc1-c1ccoc1C | 6.51 µM [falling, single point] | -0.885 | –
48 | O=c1c2cc3ccccc3n2cnn1Cc1ccccc1F | 23.1 µM [falling, single point] | -16.5 | –
49 | CCc1ccc(NC(=O)CSc2nncn2-c2cccnc2)cc1 | 6.51 µM [rising, partial curve, poor fit] | 23.9 | –
50 | CCOC(=O)C1Cn2c(nc3c(c2=O)C(C)(C)Cc2ccccc2-3)S1 (stereo unspecified) | 0.731 µM [falling, single point] | 17.7 | –
51 | O=C(Nc1ccc2oc(-c3ccccc3F)nc2c1)c1cncc(Br)c1 | 0.164 µM [rising, full curve, poor fit] | – | 0.731 µM [rising, full curve]
52 | O=C(COC(=O)C1CC1)Nc1ccccc1Sc1ccccc1 | – | 14.7 | –
53 | Cn1ncc(Br)c1C(=O)Nc1cccc(C(F)(F)F)c1 | 10.3 µM [rising, partial curve] | 15.7 | –
54 | Cc1ccc2[nH]c(-c3cccc(F)c3)cc(=O)c2c1 | 29.1 µM [rising, single point] | – | –
55 | Cc1cccc(N(CC(=O)NCCc2ccccc2)C(=O)CCC(=O)Nc2ccccn2)c1C | – | 16.8 | –
56 | Cc1c(Cl)cccc1NC(=O)c1ncn[nH]1 | 0.366 µM [rising, single point] | 15.9 | –
57 | CCOc1cc(CNc2ccc(O)cc2)ccc1OCc1ccc(Cl)cc1Cl | 1.84 µM [rising, partial curve] | – | 0.731 µM [rising, partial curve]
58 | CCNC(=O)c1c(NC(=O)C2COc3ccccc3O2)sc2c1CCCC2 (stereo unspecified) | – | -44.4 | 32.6 µM [falling, single point]
59 | CCNC(=S)N/N=C/c1ccccc1[N+](=O)[O-] | – | – | 2.31 µM [rising, single point]
